Our source for the cell viability values is the supplement of paper PMC12873370.

“And” between values parts separate entries of the source, which are not always exact repeats. Equal values may be shown once. This is one part of the list. Single values are uncertain, as repeats are few or missing.

For the first test, the system named is MEPP (mouse ovarian epithelium Trp53/Pten KO). Put plainly: cell viability relative to untreated (fraction); higher = less growth inhibition. The settings on record: 5 µM; 3 days.
As for `CNC(=O)c1cc(Oc2ccc(NC(=O)Nc3ccc(Cl)c(C(F)(F)F)c3)cc2)ccn1`, the cell viability was 0.805.

The compound `C[C@@H]1CCCCCCCCCCCCC(=O)C1` gave a cell viability of 1.06.

`CCCNC(C)C(=O)Nc1ccccc1C` (stereo not drawn) came in with a cell viability of 1.11.

On to `O=C(O)c1ccco1`, for which the cell viability was 0.828.

The compound `C[C@H]1O[C@@H](O[C@H]2[C@@H](O)C[C@H](O[C@H]3[C@@H](O)C[C@H](O[C@H]4CC[C@@]5(C)[C@H](CC[C@@H]6[C@@H]5C[C@@H](O)[C@]5(C)[C@@H](C7=CC(=O)OC7)CC[C@]65O)C4)O[C@@H]3C)O[C@@H]2C)C[C@H](O)[C@@H]1O` returned a cell viability of 0.88.

The compound `NCC(=O)O` gave a cell viability of 0.89.

`COc1c(O)cc2c(c1O)[C@@H]1O[C@H](CO)[C@@H](O)[C@H](O)[C@H]1OC2=O` showed a cell viability of 1.2.

Take `Cc1ccc2c(Cl)cc(Cl)c(O)c2n1`: the cell viability came to 0.902.

Consider `O=C(O)CCCCCCCCCCC(=O)O`, for which the cell viability is 1.18.

`O=C(O)c1cc2ccccc2[nH]1`: the cell viability turned out to be 0.984.

`O=C1OC(CN2CCOCC2)CN1/N=C/c1ccc([N+](=O)[O-])o1` (stereo not drawn) had a cell viability of 1.11.

Consider `C[C@@H]1O[C@@H](Oc2c(-c3ccc(O)c(O)c3)oc3cc(O)cc(O)c3c2=O)[C@H](O)[C@H](O)[C@H]1O`, for which the cell viability came out at 0.85.

Turning to `C/C1=C\CCC2=C[C@@H](OC2=O)c2c(C)coc2C1`, the cell viability was determined as 1.03.

With `CC(=O)OCC(=O)[C@@]1(O)[C@H](C)C[C@H]2[C@@H]3CCC4=CC(=O)C=C[C@]4(C)[C@@]3(F)[C@@H](O)C[C@@]21C`, the cell viability is 1.13.

In the case of `CC(C)C[C@H](NP(=O)(O)O[C@@H]1O[C@@H](C)[C@H](O)[C@@H](O)[C@H]1O)C(=O)N[C@@H](Cc1c[nH]c2ccccc12)C(=O)O`, the cell viability is 0.907.

In turn, `C[C@H]1O[C@H](O[C@@H]2[C@@H](O)[C@H](OCCc3ccc(O)c(O)c3)O[C@H](CO[C@H]3O[C@@H](CO)[C@H](O)[C@@H](O)[C@@H]3O)[C@H]2OC(=O)/C=C/c2ccc(O)c(O)c2)[C@@H](O)[C@@H](O)[C@@H]1O` returned a cell viability of 1.03.

Regarding `O=C(/C=C/C=C/c1ccc2c(c1)OCO2)N1CCCCC1`, the cell viability stood at 0.971.

For `OC[C@@H](O)[C@@H](O[C@H]1O[C@H](CO)[C@@H](O)[C@H](O)[C@H]1O)[C@H](O)[C@@H](O)CO`, the cell viability was found to be 0.807.

`CC(=O)O[C@H](CC(=O)O)C[N+](C)(C)C` returned a cell viability of 1.26.

`NC(N)=O` registered a cell viability of 1.22.

`CCCCCCCCCC(=O)O` came in with a cell viability of 1.01.

For the compound `CC(C)=CCC[C@](C)(O[C@@H]1O[C@H](CO)[C@@H](O)[C@H](O)[C@H]1O)[C@H]1CC[C@]2(C)[C@@H]1[C@H](O)C[C@@H]1[C@@]3(C)CC[C@H](O)C(C)(C)[C@@H]3[C@@H](O[C@@H]3O[C@H](CO)[C@@H](O)[C@H](O)[C@H]3O[C@@H]3O[C@@H](C)[C@H](O)[C@@H](O)[C@H]3O)C[C@]12C`, the cell viability was 0.995.

The compound `CCCCCCCCCC(C)=O` displayed a cell viability of 1.05.

Regarding `CCCCCC=CC(=O)CCc1ccc(O)c(OC)c1`, the cell viability came to 0.868.

For the compound `COc1ccc2c(C)cc(=O)oc2c1`, the cell viability was 0.874.

With `CCc1c2c(nc3ccc(OC(=O)N4CCC(N5CCCCC5)CC4)cc13)-c1cc3c(c(=O)n1C2)COC(=O)[C@]3(O)CC`, the cell viability is 0.985 and 0.79.

On to `C=C(CC(=O)O)C(=O)O`, for which the cell viability was determined as 1.1.

With `CC(=O)N[C@@H](Cc1ccccc1)C(=O)O`, the cell viability was determined as 1.09.

For the compound `O[C@@H]1[C@@H](O)[C@@H](OC/C=C/c2ccccc2)O[C@H](CO[C@@H]2OC[C@H](O)[C@H](O)[C@H]2O)[C@H]1O`, the cell viability turned out to be 1.05.

As to `CC(C)(OCc1nn(Cc2ccccc2)c2ccccc12)C(=O)O`, the cell viability is 0.738.

In turn, `C[C@@H]1[C@H](O)[C@@H](C)/C=C/C=C/C=C/C=C/C=C/C=C/C=C/[C@H](O[C@@H]2O[C@H](C)[C@@H](O)[C@H](N)[C@@H]2O)C[C@@H]2O[C@](O)(C[C@@H](O)C[C@@H](O)[C@H](O)CC[C@@H](O)C[C@@H](O)CC(=O)O[C@H]1C)C[C@H](O)[C@H]2C(=O)O` showed a cell viability of 1.1.

Compound `O=C(O)c1ccc(O)cc1` returned a cell viability of 1.07.

Consider `CC(C)=CCC/C(C)=C/CC/C(C)=C/CO`, for which the cell viability was found to be 0.862.

Turning to `CC(C)(CO)C(O)C(=O)NCCCO` (stereo not drawn), the cell viability turned out to be 0.89.

`O=c1ccoc2cc(O)cc(O)c12` gave a cell viability of 1.25.

`CC(N)C12CC3CC(CC(C3)C1)C2` (stereo not drawn) had a cell viability of 0.915.

In turn, `O=c1c(-c2ccc(O)cc2)coc2c([C@@H]3O[C@H](CO)[C@@H](O)[C@H](O)[C@H]3O)c(O)ccc12` gave a cell viability of 1.3.

`OC[C@H]1O[C@@H](O[C@H]2[C@H](O)[C@@H](O)[C@H](O)O[C@@H]2CO)[C@H](O)[C@@H](O)[C@H]1O` came in with a cell viability of 1.1.

Consider `NC(N)=NCCCC(N)C(=O)O` (stereo not drawn), for which the cell viability came to 0.957.

For another test, the system named is PREPP (mouse prostate epithelium Trp53/Pten KO). The description is as above. The settings on record: 5 µM; 3 days.
Take `CNC(=O)c1cc(Oc2ccc(NC(=O)Nc3ccc(Cl)c(C(F)(F)F)c3)cc2)ccn1`: the cell viability was 0.341.

As for `C[C@@H]1CCCCCCCCCCCCC(=O)C1`, the cell viability is 0.766.

For `CCCNC(C)C(=O)Nc1ccccc1C` (stereo not drawn), the cell viability was determined as 0.88.

In the case of `O=C(O)c1ccco1`, the cell viability was found to be 0.951.

For `C[C@H]1O[C@@H](O[C@H]2[C@@H](O)C[C@H](O[C@H]3[C@@H](O)C[C@H](O[C@H]4CC[C@@]5(C)[C@H](CC[C@@H]6[C@@H]5C[C@@H](O)[C@]5(C)[C@@H](C7=CC(=O)OC7)CC[C@]65O)C4)O[C@@H]3C)O[C@@H]2C)C[C@H](O)[C@@H]1O`, the cell viability was determined as 0.854.

Regarding `NCC(=O)O`, the cell viability came to 1.02.

Regarding `COc1c(O)cc2c(c1O)[C@@H]1O[C@H](CO)[C@@H](O)[C@H](O)[C@H]1OC2=O`, the cell viability is 0.946.

Regarding `Cc1ccc2c(Cl)cc(Cl)c(O)c2n1`, the cell viability was 0.889.

Turning to `O=C(O)CCCCCCCCCCC(=O)O`, the cell viability is 0.179.

`O=C(O)c1cc2ccccc2[nH]1` had a cell viability of 0.976.

Take `O=C1OC(CN2CCOCC2)CN1/N=C/c1ccc([N+](=O)[O-])o1` (stereo not drawn): the cell viability was determined as 0.667.

`C[C@@H]1O[C@@H](Oc2c(-c3ccc(O)c(O)c3)oc3cc(O)cc(O)c3c2=O)[C@H](O)[C@H](O)[C@H]1O`: the cell viability is 1.65.

For the compound `C/C1=C\CCC2=C[C@@H](OC2=O)c2c(C)coc2C1`, the cell viability amounted to 1.04.

`CC(=O)OCC(=O)[C@@]1(O)[C@H](C)C[C@H]2[C@@H]3CCC4=CC(=O)C=C[C@]4(C)[C@@]3(F)[C@@H](O)C[C@@]21C` gave a cell viability of 0.836.

For the compound `CC(C)C[C@H](NP(=O)(O)O[C@@H]1O[C@@H](C)[C@H](O)[C@@H](O)[C@H]1O)C(=O)N[C@@H](Cc1c[nH]c2ccccc12)C(=O)O`, the cell viability turned out to be 1.08.

`C[C@H]1O[C@H](O[C@@H]2[C@@H](O)[C@H](OCCc3ccc(O)c(O)c3)O[C@H](CO[C@H]3O[C@@H](CO)[C@H](O)[C@@H](O)[C@@H]3O)[C@H]2OC(=O)/C=C/c2ccc(O)c(O)c2)[C@@H](O)[C@@H](O)[C@@H]1O` had a cell viability of 0.967.

In turn, `O=C(/C=C/C=C/c1ccc2c(c1)OCO2)N1CCCCC1` yielded a cell viability of 0.978.

Consider `OC[C@@H](O)[C@@H](O[C@H]1O[C@H](CO)[C@@H](O)[C@H](O)[C@H]1O)[C@H](O)[C@@H](O)CO`, for which the cell viability came to 1.06.

As for `CC(=O)O[C@H](CC(=O)O)C[N+](C)(C)C`, the cell viability is 1.05.

`NC(N)=O` registered a cell viability of 0.98.

For `CCCCCCCCCC(=O)O`, the cell viability worked out at 1.08.

Turning to `CC(C)=CCC[C@](C)(O[C@@H]1O[C@H](CO)[C@@H](O)[C@H](O)[C@H]1O)[C@H]1CC[C@]2(C)[C@@H]1[C@H](O)C[C@@H]1[C@@]3(C)CC[C@H](O)C(C)(C)[C@@H]3[C@@H](O[C@@H]3O[C@H](CO)[C@@H](O)[C@H](O)[C@H]3O[C@@H]3O[C@@H](C)[C@H](O)[C@@H](O)[C@H]3O)C[C@]12C`, the cell viability amounted to 1.11.

In turn, `CCCCCCCCCC(C)=O` came in with a cell viability of 1.05.

`CCCCCC=CC(=O)CCc1ccc(O)c(OC)c1`: the cell viability is 1.08.

`COc1ccc2c(C)cc(=O)oc2c1` gave a cell viability of 1.04.

Take `CCc1c2c(nc3ccc(OC(=O)N4CCC(N5CCCCC5)CC4)cc13)-c1cc3c(c(=O)n1C2)COC(=O)[C@]3(O)CC`: the cell viability is 0.711 and 0.829.

`C=C(CC(=O)O)C(=O)O` gave a cell viability of 1.08.

Compound `CC(=O)N[C@@H](Cc1ccccc1)C(=O)O` came in with a cell viability of 0.974.

The compound `O[C@@H]1[C@@H](O)[C@@H](OC/C=C/c2ccccc2)O[C@H](CO[C@@H]2OC[C@H](O)[C@H](O)[C@H]2O)[C@H]1O` returned a cell viability of 1.06.

Turning to `CC(C)(OCc1nn(Cc2ccccc2)c2ccccc12)C(=O)O`, the cell viability was 0.843.

As to `C[C@@H]1[C@H](O)[C@@H](C)/C=C/C=C/C=C/C=C/C=C/C=C/C=C/[C@H](O[C@@H]2O[C@H](C)[C@@H](O)[C@H](N)[C@@H]2O)C[C@@H]2O[C@](O)(C[C@@H](O)C[C@@H](O)[C@H](O)CC[C@@H](O)C[C@@H](O)CC(=O)O[C@H]1C)C[C@H](O)[C@H]2C(=O)O`, the cell viability amounted to 0.92.

In turn, `O=C(O)c1ccc(O)cc1` came in with a cell viability of 0.925.

In turn, `CC(C)=CCC/C(C)=C/CC/C(C)=C/CO` came in with a cell viability of 0.886.

Consider `CC(C)(CO)C(O)C(=O)NCCCO` (stereo not drawn), for which the cell viability worked out at 1.07.

Compound `O=c1ccoc2cc(O)cc(O)c12` had a cell viability of 1.03.

For the compound `CC(N)C12CC3CC(CC(C3)C1)C2` (stereo not drawn), the cell viability was found to be 0.922.

As for `O=c1c(-c2ccc(O)cc2)coc2c([C@@H]3O[C@H](CO)[C@@H](O)[C@H](O)[C@H]3O)c(O)ccc12`, the cell viability turned out to be 0.968.

With `OC[C@H]1O[C@@H](O[C@H]2[C@H](O)[C@@H](O)[C@H](O)O[C@@H]2CO)[C@H](O)[C@@H](O)[C@H]1O`, the cell viability came out at 0.919.

As for `NC(N)=NCCCC(N)C(=O)O` (stereo not drawn), the cell viability is 0.976.
